Results are given in words; binding and its absence hold for the method and conditions named. In cells and extracts the contact can be indirect. Some binding calls cover weakened binding; strength is not graded here. For some of these results: Sequences can lack the tags named with a protein.
Legend:
[1] = biological target: rat GST-AR domain fusion protein AR541-919/DBD+LBD (rat) (UniProt P15207); assay: GST-pulldown, Western blot with anti-DDC (legend of FIG. 2A)
[2] = biological target: rat GST-AR domain fusion protein AR541-919/DBD+LBD (rat) (UniProt P15207); assay: GST-pulldown (GST-AR DBD+LBD on glutathione-agarose), Western blot with anti-DDC
[3] = biological target: rat GST-AR domain fusion protein AR541-919/DBD+LBD (rat) (UniProt P15207); assay: GST-pulldown of [35S]-labeled in vitro translated protein, autoradiography

The chains behind the UniProt entries cited, without tags or fusion partners. Residues count along the entry.
UniProt P15207, residues 524-902: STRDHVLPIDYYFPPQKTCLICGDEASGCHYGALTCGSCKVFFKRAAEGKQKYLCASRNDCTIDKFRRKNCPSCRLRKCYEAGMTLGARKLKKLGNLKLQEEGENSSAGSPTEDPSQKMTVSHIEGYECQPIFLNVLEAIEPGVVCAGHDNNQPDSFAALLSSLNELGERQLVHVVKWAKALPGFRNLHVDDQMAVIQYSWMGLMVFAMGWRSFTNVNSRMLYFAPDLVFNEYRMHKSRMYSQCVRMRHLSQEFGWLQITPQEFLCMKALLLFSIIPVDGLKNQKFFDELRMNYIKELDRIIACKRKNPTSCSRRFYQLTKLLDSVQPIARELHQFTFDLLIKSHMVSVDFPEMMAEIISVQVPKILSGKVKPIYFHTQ

Binder | binding [1] | binding [2] | binding [3]
purified His-tagged-DDC protein (6x-His N-terminal fusion of dopa decarboxylase) (enzyme, human, UniProt P20711 2-480, looked up, not shown: small tags and cut ends) NASEFRRRGKEMVDYMANYMEGIEGRQVYPDVEPGYLRPLIPAAAPQEPDTFEDIINDVEKIIMPGVTHWHSPYFFAYFPTASSYPAMLADMLCGAIGCIGFSWAASPACTELETVMMDWLGKMLELPKAFLNEKAGEGGGVIQGSASEATLVALLAARTKVIHRLQAASPELTQAAIMEKLVAYSSDQAHSSVERAGLIGGVKLKAIPSDGNFAMRASALQEALERDKAAGLIPFFMVATLGTTTCCSFDNLLEVGPICNKEDIWLHVDAAYAGSAFICPEFRHLLNGVEFADSFNFNPHKWLLVNFDCSAMWVKKRTDLTGAFRLDPTYLKHSHQDSGLITDYRHWQIPLGRRFRSLKMWFVFRMYGVKGLQAYIRKHVQLSHEFESLVRQDPRFEICVEVILGLVCFRLKGSNKVNEALLQRINSAKKIHLVPCHLRDKFVLRFAICSRTVESAHVQRAWEHIKELAADVLRAERE | binds | binds | –
mutant DDC with Lys303Ile in the PLP cofactor binding site, in vitro transcribed/translated from pDEST12.2-mt-DDC (enzyme, UniProt P20711 1-480, looked up, radiolabeled with [35S]-methionine) MNASEFRRRGKEMVDYMANYMEGIEGRQVYPDVEPGYLRPLIPAAAPQEPDTFEDIINDVEKIIMPGVTHWHSPYFFAYFPTASSYPAMLADMLCGAIGCIGFSWAASPACTELETVMMDWLGKMLELPKAFLNEKAGEGGGVIQGSASEATLVALLAARTKVIHRLQAASPELTQAAIMEKLVAYSSDQAHSSVERAGLIGGVKLKAIPSDGNFAMRASALQEALERDKAAGLIPFFMVATLGTTTCCSFDNLLEVGPICNKEDIWLHVDAAYAGSAFICPEFRHLLNGVEFADSFNFNPHIWLLVNFDCSAMWVKKRTDLTGAFRLDPTYLKHSHQDSGLITDYRHWQIPLGRRFRSLKMWFVFRMYGVKGLQAYIRKHVQLSHEFESLVRQDPRFEICVEVILGLVCFRLKGSNKVNEALLQRINSAKKIHLVPCHLRDKFVLRFAICSRTVESAHVQRAWEHIKELAADVLRAERE | – | – | binds
wild-type DDC, in vitro transcribed/translated from pDEST12.2-DDC (enzyme, UniProt P20711 1-480, looked up, radiolabeled with [35S]-methionine) MNASEFRRRGKEMVDYMANYMEGIEGRQVYPDVEPGYLRPLIPAAAPQEPDTFEDIINDVEKIIMPGVTHWHSPYFFAYFPTASSYPAMLADMLCGAIGCIGFSWAASPACTELETVMMDWLGKMLELPKAFLNEKAGEGGGVIQGSASEATLVALLAARTKVIHRLQAASPELTQAAIMEKLVAYSSDQAHSSVERAGLIGGVKLKAIPSDGNFAMRASALQEALERDKAAGLIPFFMVATLGTTTCCSFDNLLEVGPICNKEDIWLHVDAAYAGSAFICPEFRHLLNGVEFADSFNFNPHKWLLVNFDCSAMWVKKRTDLTGAFRLDPTYLKHSHQDSGLITDYRHWQIPLGRRFRSLKMWFVFRMYGVKGLQAYIRKHVQLSHEFESLVRQDPRFEICVEVILGLVCFRLKGSNKVNEALLQRINSAKKIHLVPCHLRDKFVLRFAICSRTVESAHVQRAWEHIKELAADVLRAERE | – | – | binds

Source: patent US20100048709A1 (UNIVERSITY OF BRITISH COLUMBIA, published 2010)
